Experimental findings from patent US20200131257A1 are described below.

Amino acid sequences for entries named in this document (tags omitted). A change or cut given only in a name is not applied to a line headed by its entry. Residues count along the entry.
UniProt Q86Z14: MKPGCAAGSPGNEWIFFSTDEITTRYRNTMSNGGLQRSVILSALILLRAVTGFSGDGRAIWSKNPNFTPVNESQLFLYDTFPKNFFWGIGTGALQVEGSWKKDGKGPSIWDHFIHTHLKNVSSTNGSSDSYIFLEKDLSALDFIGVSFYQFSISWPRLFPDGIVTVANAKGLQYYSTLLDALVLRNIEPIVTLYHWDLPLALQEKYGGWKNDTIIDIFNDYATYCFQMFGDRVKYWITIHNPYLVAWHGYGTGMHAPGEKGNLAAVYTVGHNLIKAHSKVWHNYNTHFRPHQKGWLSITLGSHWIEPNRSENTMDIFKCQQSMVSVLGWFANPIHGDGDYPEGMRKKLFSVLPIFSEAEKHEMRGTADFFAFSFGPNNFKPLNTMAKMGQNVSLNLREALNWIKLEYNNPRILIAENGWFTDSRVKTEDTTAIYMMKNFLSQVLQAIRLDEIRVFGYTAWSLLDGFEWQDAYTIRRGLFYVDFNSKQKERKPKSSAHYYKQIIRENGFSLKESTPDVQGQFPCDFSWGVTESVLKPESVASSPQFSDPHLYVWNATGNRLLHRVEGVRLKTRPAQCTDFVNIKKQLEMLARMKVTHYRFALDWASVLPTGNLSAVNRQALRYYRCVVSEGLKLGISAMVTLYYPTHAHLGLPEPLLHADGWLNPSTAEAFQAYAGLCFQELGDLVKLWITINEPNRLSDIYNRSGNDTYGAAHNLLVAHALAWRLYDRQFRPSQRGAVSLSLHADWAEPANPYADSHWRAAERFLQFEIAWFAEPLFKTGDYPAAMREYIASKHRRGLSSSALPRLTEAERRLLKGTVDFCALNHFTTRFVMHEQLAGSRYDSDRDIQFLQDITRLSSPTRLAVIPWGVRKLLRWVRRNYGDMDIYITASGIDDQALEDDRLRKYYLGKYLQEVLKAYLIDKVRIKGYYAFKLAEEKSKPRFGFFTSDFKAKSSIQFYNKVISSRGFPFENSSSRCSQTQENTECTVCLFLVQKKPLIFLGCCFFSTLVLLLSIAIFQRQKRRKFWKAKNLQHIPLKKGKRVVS
UniProt P11362: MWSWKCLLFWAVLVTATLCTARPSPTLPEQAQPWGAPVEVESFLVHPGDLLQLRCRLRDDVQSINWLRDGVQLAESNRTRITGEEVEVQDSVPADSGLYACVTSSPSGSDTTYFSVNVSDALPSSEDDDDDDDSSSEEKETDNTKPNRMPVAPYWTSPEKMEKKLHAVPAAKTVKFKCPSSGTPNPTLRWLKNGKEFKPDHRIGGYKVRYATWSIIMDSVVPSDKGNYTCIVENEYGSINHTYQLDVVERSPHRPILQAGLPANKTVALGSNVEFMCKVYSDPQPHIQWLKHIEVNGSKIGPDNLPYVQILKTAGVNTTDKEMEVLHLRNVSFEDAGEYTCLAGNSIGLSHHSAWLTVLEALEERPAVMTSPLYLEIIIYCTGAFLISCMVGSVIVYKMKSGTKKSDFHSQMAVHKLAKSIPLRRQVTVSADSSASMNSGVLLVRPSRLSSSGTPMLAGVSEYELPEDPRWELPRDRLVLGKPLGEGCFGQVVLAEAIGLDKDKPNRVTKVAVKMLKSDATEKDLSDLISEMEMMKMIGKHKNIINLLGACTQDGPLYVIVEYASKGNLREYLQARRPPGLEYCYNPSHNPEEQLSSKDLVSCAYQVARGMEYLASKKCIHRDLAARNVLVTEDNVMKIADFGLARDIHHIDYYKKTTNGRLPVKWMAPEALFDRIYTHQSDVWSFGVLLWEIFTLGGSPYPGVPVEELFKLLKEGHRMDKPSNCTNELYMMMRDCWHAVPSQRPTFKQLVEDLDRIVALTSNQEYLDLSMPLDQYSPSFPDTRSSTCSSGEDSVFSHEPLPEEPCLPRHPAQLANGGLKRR
human FGFR1c expressed on L6 cells: residues 22-822 of P11362
FGFR1cD2D3 (ligand binding region of FGFR1c): residues 142-365 of P11362
UniProt Q9NSA1: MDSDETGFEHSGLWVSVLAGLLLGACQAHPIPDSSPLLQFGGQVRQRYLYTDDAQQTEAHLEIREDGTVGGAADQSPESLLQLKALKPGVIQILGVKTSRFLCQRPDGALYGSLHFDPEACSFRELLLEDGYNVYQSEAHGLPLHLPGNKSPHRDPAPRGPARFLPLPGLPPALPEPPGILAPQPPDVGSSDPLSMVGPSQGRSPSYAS

These are yes or no findings as the source states them, for the method shown. For part of these data: In cells and extracts the contact can be indirect. Some entries that bind do so weakly or less than the wild type.

Test [1] concerns the target extracellular domain of human β-Klotho (sKLB) (human) (UniProt Q86Z14). The test can be described thus: MST competition: GST-FGF21CT titrated into a constant mixture of sKLB and fluorescently labelled FGF21 (competitor: fl-FGF21).
The target of test [2] is human FGFR1c expressed on L6 cells (human) (UniProt P11362). The test can be described thus: co-immunoprecipitation from L6 cell lysates: IP anti-FGFR, IB anti-β-Klotho.
For test [3] the target is unchanged. The test can be described thus: co-immunoprecipitation with anti-FGFR1 antibody from L6 cells.
Test [4] has the same target. The test can be described thus: co-immunoprecipitation from L6 cell lysates: IP anti-FGFR, IB anti-β-Klotho [left panel].
Test [5] has as its target FGFR1cD2D3 (ligand binding region of FGFR1c) (UniProt P11362). The experiment in a line: MST: sKLB titrated into fluorescently labelled FGFR1cD2D3.
The target of test [6] is R203W/L194F-mutated FGF21 (FGF21WF) (human) (UniProt Q9NSA1). The experiment in a line: MST: sKLB titrated into fluorescently labelled FGF21 R203W/L194F, plotted as fraction bound.

On to “GST-fused FGF21CT (GST-FGF21CT), wild type (from UniProt Q9NSA1 169-209)”, for which, in test [1], the binding entry was “binds”.
Turning to “full-length human β-Klotho (KLB), C-terminal HA-tagged, on L6 cells (from UniProt Q86Z14 53-1044) (receptor)”, the binding result in test [2], in test [3] and in test [4] was “binds” in each case.
On to “extracellular domain of human β-Klotho (sKLB) (from UniProt Q86Z14 53-983) (receptor)”, for which the binding entry in test [5] and in test [6] was “binds” each time.
